{"source": "patent US11478486B2", "about": "“Association of actives for treating prostate cancer” (priority 2017, dated 2022)", "system": "p38 (MAPK14)", "test": "p38 activation, western blot with anti-phospho-p38 antibody", "format": "cell-based, human", "settings": "22Rv1 and LNCaP prostate cancer cells, 24 hours", "description": "FIG. 1: Abiraterone induces p38 activation. Prostate cancer cells LNCaP (Androgen Receptor expressing cells) were treated with abiraterone (30 μM). Prostate cancer cells 22Rv1 (Androgen Receptor and AR-V7 expressing cells) were treated with 0.1, 1.0, 10.0 and 30.0 μM abiraterone during 24 hours. Protein were extracted and subjected to western blot analysis using anti-phospho-p38, anti-p38 and anti-tubulin antibodies. (Example 1)\n[…]. A: LNCaP human prostate cells (Androgen Receptor expressing cells) were treated by enzalutamide (35.0 μM) during 24 h00. Phosphorylation p38 was assessed. Tubuline and non-phosphorylated proteins were stained as a loading control. B: same experiment with the Androgen Receptor and AR-V7 expressing 22Rv1 human prostate cancer cells (Example 1).", "note": "At least one compound was matched to its structure with a doubt left."}
{"smiles": "C[C@]12CC[C@H](O)CC1=CC[C@@H]1[C@@H]2CC[C@]2(C)C(c3cccnc3)=CC[C@@H]12", "note": "[abiraterone]", "values": [{"measurement": "activation of MAPK p38 (phosphorylated form of p38)", "value": "activates the MAPK p38"}]}
